Measurements taken from patent publication US11571437B2, “Methods of treating cancer using PRMT5 inhibitors” (Janssen Pharmaceutica NV, priority 2019, dated 2023).

Assay: Phase 1 open-label study Part 1: safety and tolerability
Assay type: in vivo, human
Source text: This is a multi-part, Phase 1, open-label, multicenter study to evaluate the safety, pharmacokinetics, pharmacodynamics, and preliminary clinical activity of JNJ-64619178 monotherapy administered either to adult human subjects with advanced solid tumors or B cell non-Hodgkin lymphomas who previously received or are ineligible for standard treatment options, or to adult subjects with lower risk myelodysplastic syndromes (MDS) who are red blood cell (RBC) transfusion-dependent and relapsed or refractory to erythropoiesis-stimulating agent (ESA) treatment.
Fifteen (15) participants with various solid tumors (e.g., breast cancer, prostate cancer, salivary duct carcinoma, adenoid cystic carcinoma) were dosed in the “Part 1” study described below with JNJ-64619178 at 0.5 mg (1′ cohort), 1 mg (2nd cohort), 2 mg (3rd cohort) and 4 mg (4th cohort) under a schedule of 14 days continuous dose administration followed by a 7-day rest period (14 days on/7 days off in a 21-day cycle). […]
The JNJ-64619178 starting dose is based on toxicology results obtained using no observed adverse effect level (NOAEL) dose, more conservative than the highest non-severely toxic dose (HNSTD) in the dog as the most sensitive species. […] Alternative dosing schedules (e.g., continuous dosing, 7 days on/7 days off, and 7 days on/14 days off) are also evaluated. […]

## Nc1nc2cc(CC[C@H]3C[C@@H](n4ccc5c(N)ncnc54)[C@H](O)[C@@H]3O)ccc2cc1Br [JNJ-64619178, (1S,2R,3S,5R)-3-(2-(2-amino-3-bromoquinolin-7-yl)ethyl)-5-(4-amino-7H-pyrrolo[2,3-d]pyrimidin-7-yl)cyclopentane-1,2-diol]
QD
  provisional RP2D: 1 mg
intermittently
  provisional RP2D: 1.5 mg
